PubChem BioAssay AID504793, Drosophila RNAi Screening Center | 2011
Purpose: 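Whole-genome screen for parts of the DNA damage checkpoint at G2/M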 (primary screen). Cells: Drosophila S2R+ cells. Reagent: long dsRNA against Drosophila genes, about 0.25 µg dsRNA per well. Time to read-out: 4 days of dsRNA, then 4 hours of drug before read-out. Treatment: doxorubicin 0.5 µM for 4 hours to cause double-strand breaks, in cells also given a low, harmless dose of dsRNA against nbs to sensitise the assay. Measured: 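Mitotic index as the number of phospho-histone H3-positive cells in each well following doxorubicin, given as raw counts without normalisation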. Direction: mitotic cells: higher = more cells in mitosis, weaker G2 arrest. Hit rule: 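Genes are called active only when high mitotic counts were reproduced with independent dsRNAs and mitosis was checked for delay without damage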. Calls: active = confirmed in follow-up tests; inactive = not confirmed.
In all, the deposit lists about 23,000 reagents; shown is an unselected part of those with a known target gene and a result. Of all reagents, 62 (0.27%) were called active. 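Calls come from follow-up tests whose scores are not deposited, so confirmed genes may have low counts here; counts are not normalised per plate.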 The raw values are shown without normalisation. Unmarked entries are inactive.

After knock-down of CG33218 (retired record) [DRSC22944], the screen gave mitotic cells, replicate 1 = 9. Against betaTub60D [DRSC04673], the values are mitotic cells, replicate 1 = 3. betaTub60D [DRSC22218] scored mitotic cells, replicate 1 = 5. Knock-down of betaTub60D [DRSC23872] resulted in: mitotic cells, replicate 1 = 5. With knock-down of zfh2 [DRSC17178] the results were mitotic cells, replicate 1 = 7. Against zfh2 [DRSC28010], the values are mitotic cells, replicate 1 = 3.

CG1265 [DRSC08288] scored mitotic cells, replicate 1 = 7. Silencing of CG11298 [DRSC04100] gave: mitotic cells, replicate 1 = 14.

Quoted from the listing for reference:
zfh2 [DRSC28010] — mitotic cells, replicate 1: 3
CG1265 [DRSC08288] — mitotic cells, replicate 1: 7

The list goes on.
Knock-down of CG10283 [DRSC02034] resulted in: mitotic cells, replicate 1 = 2. Knock-down of CG10283 [DRSC25302] gave: mitotic cells, replicate 1 = 9. After knock-down of CG14153 [DRSC10155], the screen gave mitotic cells, replicate 1 = 3. With knock-down of CG14153 [DRSC22595] the results were mitotic cells, replicate 1 = 6. Depletion of Epac [DRSC04969] resulted in: mitotic cells, replicate 1 = 11. Depletion of Epac [DRSC04996] came out at: mitotic cells, replicate 1 = 11.

Against Epac [DRSC04997], the values are mitotic cells, replicate 1 = 5.
